Assay results reported in article PMC9173640, “PI Kinase-EhGEF2-EhRho5 axis contributes to LPA stimulated macropinocytosis in Entamoeba histolytica” (PLoS Pathogens, 2022).

The chains behind the UniProt entries cited, without tags or fusion partners. Where a name states a change or a piece, a line headed by the entry shows the natural chain unless it says otherwise.
UniProt Q8C6B2: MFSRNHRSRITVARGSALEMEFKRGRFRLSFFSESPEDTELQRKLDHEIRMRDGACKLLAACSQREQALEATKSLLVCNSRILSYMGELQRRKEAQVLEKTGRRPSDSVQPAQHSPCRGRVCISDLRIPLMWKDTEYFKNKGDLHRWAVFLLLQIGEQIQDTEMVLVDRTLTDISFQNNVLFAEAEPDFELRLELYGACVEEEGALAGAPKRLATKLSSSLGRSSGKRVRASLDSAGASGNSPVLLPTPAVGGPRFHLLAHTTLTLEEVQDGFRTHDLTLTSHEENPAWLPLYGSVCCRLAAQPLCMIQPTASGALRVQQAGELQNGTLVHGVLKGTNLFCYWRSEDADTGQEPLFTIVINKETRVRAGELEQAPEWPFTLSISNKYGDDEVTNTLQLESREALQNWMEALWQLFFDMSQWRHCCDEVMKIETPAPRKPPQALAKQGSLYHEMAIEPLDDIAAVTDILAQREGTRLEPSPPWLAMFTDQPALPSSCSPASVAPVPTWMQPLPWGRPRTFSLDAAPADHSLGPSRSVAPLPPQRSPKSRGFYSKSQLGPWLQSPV
UniProt Q24817: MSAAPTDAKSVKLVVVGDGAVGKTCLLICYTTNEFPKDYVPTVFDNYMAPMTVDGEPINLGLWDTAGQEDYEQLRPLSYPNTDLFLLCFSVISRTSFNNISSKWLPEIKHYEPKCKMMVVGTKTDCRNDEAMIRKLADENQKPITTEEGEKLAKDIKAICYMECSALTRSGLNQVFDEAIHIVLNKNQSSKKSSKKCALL

Target: GST-RBD (Rho binding domain of mRhotekin) (not stated (printed as mRhotekin)) (UniProt Q8C6B2)
Assay: pull-down; 0.1 umole GST-RBD/GST-PBD bound to Sepharose beads incubated with 0.20 umole His-EhRho5 loaded with GMPPNP, 30 min, room temperature; blot with anti-His; both purified

## His-EhRho5 (from UniProt Q24817)
  binding: binds

Results are given in words; binding and its absence hold for the method and conditions named. Binding calls can cover weak binding; strength is not graded here.
